Patent publication US4629728A, “Antihypoxemic 5-(4-substituted piperazinyl)alkyl-8-substituted quinolines” (ADIR S.A.R.L., priority 1984, dated 1986)
At least one compound was matched to its structure with a doubt left. Some entries repeat one wording, which the source may state once for all of them.

Legend:
cortical electrogenesis = assay: iterative anoxias test (losses of cortical electrogenesis); format: in vivo; details: rats, IV perfusion 33 micro g/kg; controls no longer recuperate
Method: The protective activity vis-a-vis the losses of cortical electrogenesis connected to the ischemic or hypoxic syndrome is evaluated by the iterative anoxias test in rats. […] After the second anoxia, whilst the control animals no longer recuperate their electrocortical activity, the animals treated with the compounds in particular the compounds described in Examples 30, 37, 38, 40 and 54 recover it when they have received by IV perfusion 33 micro g/kg of these. The reference substances only restore it later, at the 120th second for eburnamonine or nicergoline.

[1] = cerebral oedema by hypoperfusion of 1 hour (ischemic syndrome) or by triethyl tin per os; format: in vivo; details: 4 days, 10 mg/kg twice daily, intraperitoneal route
[2] = system: mitochondrias of the cerebral cortex; assay: oxidative phosphorylation capacity of mitochondrias of the cerebral cortex after an ischemic syndrome; format: in vivo, rats; details: ischemied rat, intravenous perfusion 0.1 mg/kg
Excerpt: These same compounds show their pharmacological action vis-a-vis losses of the oxidative phosphorylation capacity of mitochondrias of the cerebral cortex obtained after an ischemic syndrome in rats. […] The same activity is only obtained for the reference products with dihydroergotoxine.

Compound: COc1ccccc1N1CCN(CCc2ccc(OC)c3c2CCCN3C=O)CC1 [Example 54, 1-formyl-5-{-2-[4-(2-methoxyphenyl)piperazinyl]ethyl}-8-methoxy-1,2,3,4-tetrahydro quinoline]
- recovery of electrocortical activity after the second anoxia (cortical electrogenesis): recover it
- percentage of water contained in the brain [1]: close to or to normal level
- oxygen consumption of the mitochondria stimulated by ADP [2]: restore the oxygen consumption of the mitochondria stimulated by ADP

Compound: CC(=O)N1CCCc2c(CCN3CCN(c4ccccn4)CC3)ccc(O)c21 [Example 38, 1-acetyl-5-{2-[4-(2-pyridyl)piperazinyl]ethyl}-8-hydroxy-1,2,3,4-tetrahydro quinoline]
- recovery of electrocortical activity after the second anoxia (cortical electrogenesis): recover it
- oxygen consumption of the mitochondria stimulated by ADP [2]: restore the oxygen consumption of the mitochondria stimulated by ADP

Compound: COc1ccccc1N1CCN(CCc2ccc(OS(C)(=O)=O)c3c2CCCN3)CC1 [Example 30, 5-{2-[4-(2-methoxyphenyl)piperazinyl]ethyl}-8-methylsulfonyloxy-1,2,3,4-tetrahydro quinoline]
- recovery of electrocortical activity after the second anoxia (cortical electrogenesis): recover it
- percentage of water contained in the brain [1]: close to or to normal level
- oxygen consumption of the mitochondria stimulated by ADP [2]: restore the oxygen consumption of the mitochondria stimulated by ADP

Compound: COc1ccccc1N1CCN(CCc2ccc(O)c3c2CCCN3C)CC1 [Example 51, 1-methyl-5-{2-[4-(2-methoxyphenyl)piperazinyl]ethyl}-8-hydroxy-1,2,3,4-tetrahydro quinoline]
- percentage of water contained in the brain [1]: close to or to normal level

Compound: COc1ccccc1N1CCN(CCc2ccc(O)c3c2CCCN3C(C)=O)CC1 [Example 37, 1-acetyl-5-{2-[4-(2-methoxyphenyl)piperazinyl]ethyl}-8-hydroxy-1,2,3,4-tetrahydro quinoline]
- recovery of electrocortical activity after the second anoxia (cortical electrogenesis): recover it
- percentage of water contained in the brain [1]: close to or to normal level

Compound: COc1ccccc1N1CCN(CCc2ccc(OC)c3c2CCCN3C(C)=O)CC1 [Example 40, 1-acetyl-5-{2-[4-(2-methoxyphenyl)piperazinyl]ethyl}-8-methoxy-1,2,3,4-tetrahydro quinoline]
- recovery of electrocortical activity after the second anoxia (cortical electrogenesis): recover it
